# Measured values taken from patent US20180000964A1 (Genentech, published 2018).
# Chains of the proteins cited; added tags and fusions are not shown. Lines headed by an entry give the natural chain unless they say otherwise; changes in a name come on top.
# UniProt P18572: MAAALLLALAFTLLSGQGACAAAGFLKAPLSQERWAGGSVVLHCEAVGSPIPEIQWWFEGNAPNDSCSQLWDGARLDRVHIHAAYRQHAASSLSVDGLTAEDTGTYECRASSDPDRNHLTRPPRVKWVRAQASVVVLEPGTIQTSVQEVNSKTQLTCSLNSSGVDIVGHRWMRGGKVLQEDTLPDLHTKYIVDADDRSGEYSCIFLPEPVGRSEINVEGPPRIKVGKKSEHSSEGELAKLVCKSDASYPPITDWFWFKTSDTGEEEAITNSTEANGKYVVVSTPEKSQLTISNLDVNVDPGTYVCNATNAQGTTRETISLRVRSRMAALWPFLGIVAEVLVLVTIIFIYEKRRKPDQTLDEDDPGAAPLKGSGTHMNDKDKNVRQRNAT
# No constants are given. Whether binding was seen depends on the method and setting. Binding can be weak; no strength is given.
# Legend:
# [1] = target: murine basigin (on cells) (murine) (UniProt P18572); assay: as for anti-Bsg^A and anti-Bsg^B (in vivo immunohistochemistry; possibly also flow cytometry)
# [2] = target: murine basigin (on cells) (murine) (UniProt P18572); assay: flow cytometry, HEK293 cells transfected with murine basigin
# [3] = target: murine basigin (on cells) (murine) (UniProt P18572); assay: immunohistochemistry of mouse cortical tissue 1 hour after 5 mg/kg i.v. dose (in vivo binding)
# [4] = target: murine basigin (on cells) (murine) (UniProt P18572); assay: flow cytometry, HEK293 cells transiently expressing murine basigin
# [5] = target: murine basigin (on cells) (murine) (UniProt P18572); assay: flow cytometry, HEK293 cells transfected with murine basigin, PE-labelled secondary antibody
Binder,binding [1],binding [2],binding [3],binding [4],binding [5]
"anti-Bsg^C (antibody, V domains shown) VH: EVQLVESGGSLVQPGRSMKVSCAASGFTFTKYYMAWVRQAPTKGLEWVASISTGGGNTYYRDSVKGRFTISRDNAKSTLYLQMDSLRSEDTATYYCARTLINYSDYADYVMDAWGQGASVTVSS VL: DIQMTQSPASLSASLGETVSIECLASEGISNSLAWYQQKPGKSPQLLIYGASSLQDGVPSRFSGSGSGTQFSLKISGMQPEDEGIYYCQQGYKYPFTFGSGTKLEIK",binds,,,,
"anti-Bsg^A (antibody, V domains shown, also called bivalent (monospecific) anti-Bsg^A) VH: EVQLVESGGGLVLPGRSMKLSCAASGFTFRTYYMAWVRQAPTKGLEWVASISIGGDNTYYRDSVMGRFTISRDDAKSTLHLQMDNLRSEDTATYYCVRLRGYFDYWGQGVMVTVSS VL: EIVLTQSPATMPASPGEKVTLTCRASSSIRYIYWYQQKSGTSPKLWIYDTSKLASGVPNRFSGSGSGTSYSLTISSMETEDTATYYCQQGRSYPLTFGSGTKLEIK",,binds,binds,binds,binds
"anti-Bsg^B (antibody, V domains shown, also called bivalent (monospecific) anti-Bsg^B) VH: EVQLVESGGGLVQPGRSLKLSCVASGFTFNNYWMTWIRQAPGKGLEWFASITNTGGSTYYPDSVKGRFTISRDNAQSTLYLQTNSLRPEDTATYYCARRDGSYYPYYWYFDLWGPGTTVTVSS VL: NTVMTQSPTSMFISVGDRVTMNCKASRSVGTNVDWYQQKTGQSPTLLFYGASNRYIGVPDRFTGSGSGTDFTLTISNMQAEDLAVYYCLQYNYNWAFGGGTKLELK",,binds,binds,binds,binds

# Continued, values first:
binding [1],binding [2],binding [3],binding [4],binding [5],Binder
binds,,,,,"anti-Bsg^E (antibody, V domains shown) VH: QVQLKESGPGLVQPSQTLSLTCSVSGLSLTTSSLSWIRQPPGKGLEWMGGIWSKGGTEYNSPIKSRLSISRDTSKSQIFLKMNSLQTEDTAMYFCARNGVYHNYWYFDFWGPGTMVTVSS VL: QFTLTQPKSVSGSLRSTITIPCERSSGDIGHNYVSWYQQHLGRPPINVIYADDQRPSEVSDRFSGSIDSSSNSASLTITNLQMDDEADYFCQSYDSNVDIVFGGGTKLTVL"
binds,,,,,"anti-Bsg^D (antibody, V domains shown) VH: EVQLVESGGGLVQPGRSMKLSCAASGFTLSNYYMAWVRQAPTKGLEWVASISTGGGYTYYRDSVKGRFTISRDLAKSTLYLQMDSLRSEDTATYHCARSLINYRNYGDYVMDAWGQGASVTVSS VL: DIQMTQSPASLSASLGETVSIECLASEGISNSLAWYQQKPGKSPQLLIYDASSLQVGVPSRFSGSGSGTQYSLKISGLQPEDEGVYYCQQGYKYPFTFGSGTKLEIK"
